PubChem BioAssay AID1259254 – NCATS | 2017

- Purpose: 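Genome-wide screen for genes that prevent DNA re-replication in cancer cells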 (primary screen)
- Cell system: human HCT116 colorectal cancer cells
- Reagents: single siRNA against human genes
- Time to read-out: 3 days
- Detection: 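Nuclei stained with Hoechst and imaged; cell-cycle phase assigned by DNA content; G2 share scaled per plate, non-targeting siRNA 0%, GMNN siRNA 100%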
- Scale: G2 robust z-score and G2 cells, % of GMNN control: higher = more G2 cells, more excess DNA replication
- Rule for the call: 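Active siRNAs have a G2 robust z of 5 or more median absolute deviations over the median, which in these data means about 38% or higher of GMNN control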
The deposit covers about 59,000 reagents; shown is a part drawn at random. Over the whole deposit, about 1,550 (2.6%) got an active call. 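G2 share is only a proxy for re-replication; each gene was hit by three separate siRNAs, and active genes were retested.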 Unmarked entries are inactive. The numbers tell different reagents against one gene apart. Further read-outs or replicates are left out here. Not stated in the record: the amount of reagent.

UBE2D2 #1 gave G2 robust z-score -0.0558; G2 cells, % of GMNN control 2.57.
Silencing of UBE2D2 #2 came out at: G2 robust z-score -0.142; G2 cells, % of GMNN control 1.97.
Depletion of UBE2D2 #3 gave: G2 robust z-score 0.764; G2 cells, % of GMNN control 8.35.
HPSE2 #1 gave G2 robust z-score 0.189; G2 cells, % of GMNN control 4.3.
Depletion of HPSE2 #2 came out at: G2 robust z-score 0.74; G2 cells, % of GMNN control 8.17.
For HPSE2 #3, the values are G2 robust z-score -0.216; G2 cells, % of GMNN control 1.45.
After knock-down of LOC389834 #1, the screen gave G2 robust z-score -0.435; G2 cells, % of GMNN control -0.0954.
LOC389834 #2 scored G2 robust z-score -0.391; G2 cells, % of GMNN control 0.218.
LOC389834 #3 gave G2 robust z-score 0.443; G2 cells, % of GMNN control 6.09.
After knock-down of SNAI3 #1, the screen gave G2 robust z-score 0.163; G2 cells, % of GMNN control 4.11.
Against SNAI3 #2 the deposit lists G2 robust z-score 0.259; G2 cells, % of GMNN control 4.79.
After knock-down of SNAI3 #3, the screen gave G2 robust z-score -0.706; G2 cells, % of GMNN control -2.
HAUS1 #1 showed G2 robust z-score 0.997; G2 cells, % of GMNN control 9.98.
Knock-down of HAUS1 #2 came out at: G2 robust z-score -0.242; G2 cells, % of GMNN control 1.27.
Depletion of HAUS1 #3 gave: G2 robust z-score 0.234; G2 cells, % of GMNN control 4.61.
Silencing of AGTPBP1 #1 gave: G2 robust z-score 3.18; G2 cells, % of GMNN control 25.4.
Silencing of AGTPBP1 #2 came out at: G2 robust z-score -0.623; G2 cells, % of GMNN control -1.41.
Against AGTPBP1 #3, the values are G2 robust z-score 0.143; G2 cells, % of GMNN control 3.98.
MTCH2 #1 scored G2 robust z-score 0.644; G2 cells, % of GMNN control 7.5.
For MTCH2 #2 the deposit lists G2 robust z-score 3; G2 cells, % of GMNN control 24.1.
With knock-down of MTCH2 #3 the results were G2 robust z-score 0.206; G2 cells, % of GMNN control 4.42.
Knock-down of ACOT2 #1 came out at: G2 robust z-score -1.36; G2 cells, % of GMNN control -6.6.
With knock-down of ACOT2 #2, the record shows G2 robust z-score 0.229; G2 cells, % of GMNN control 4.58.
After knock-down of ACOT2 #3, the record shows G2 robust z-score 0.109; G2 cells, % of GMNN control 3.74.

2 of these entries, reformatted.
gene knocked down,reagent no.,G2 robust z-score,"G2 cells, % of GMNN control"
UBE2D2,3,0.764,8.35
HPSE2,1,0.189,4.3
